The target of this data set is Sp1 (TIG-1 nuclear extract) (Homo sapiens (TIG-1 normal fibroblasts)) (UniProt P08047). Description: competition with a labelled probe. The following applies: unlabeled competitor abolishes binding to XRCC1 probe, protein in an extract.

By UniProt entry, the sequences of proteins in these tests, tags left out.
UniProt P08047, whole entry: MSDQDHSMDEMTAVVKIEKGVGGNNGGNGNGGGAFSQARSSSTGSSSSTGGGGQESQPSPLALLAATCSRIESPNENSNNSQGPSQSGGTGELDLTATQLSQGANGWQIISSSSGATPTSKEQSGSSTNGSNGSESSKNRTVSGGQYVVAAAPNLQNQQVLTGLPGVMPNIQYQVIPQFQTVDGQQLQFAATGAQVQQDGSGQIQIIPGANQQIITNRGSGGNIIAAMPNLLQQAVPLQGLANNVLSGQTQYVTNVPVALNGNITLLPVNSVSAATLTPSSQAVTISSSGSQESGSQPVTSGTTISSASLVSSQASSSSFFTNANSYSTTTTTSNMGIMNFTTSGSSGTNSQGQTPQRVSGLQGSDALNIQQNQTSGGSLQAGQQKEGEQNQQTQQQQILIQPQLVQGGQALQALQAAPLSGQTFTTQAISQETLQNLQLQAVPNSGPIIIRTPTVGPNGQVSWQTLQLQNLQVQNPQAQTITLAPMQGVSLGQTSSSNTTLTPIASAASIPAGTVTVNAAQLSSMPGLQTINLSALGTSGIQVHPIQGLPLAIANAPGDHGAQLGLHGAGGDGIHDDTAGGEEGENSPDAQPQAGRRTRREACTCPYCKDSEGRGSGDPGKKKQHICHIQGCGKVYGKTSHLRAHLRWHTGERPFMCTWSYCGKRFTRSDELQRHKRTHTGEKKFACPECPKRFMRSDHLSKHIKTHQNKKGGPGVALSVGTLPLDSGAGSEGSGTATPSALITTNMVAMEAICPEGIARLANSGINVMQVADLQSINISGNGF

The values below come from paper PMC5829641.

The exact form of at least one protein or probe is not confirmed. Where cells or extracts were used, other partners may take part.

On to “ATTCGATCGGGGCGGGGCGAGC (double strand) [Sp1 consensus competitor]”, for which the binding result is on record as “binds”.
